Source: article PMC10556103, “Autoantibody binding and unique enzyme-substrate intermediate conformation of human transglutaminase 3” (Nature Communications, 2023)
These are yes or no findings as the source states them, for the method shown.

Tests used:
[1] = target: T1, Z-DON-associated TG3 without C1C2 (enzyme-substrate intermediate conformer) (human) (UniProt Q08188); test: SEC; cathepsin L-cleaved TG3 incubated overnight at 4 °C with Z-DON (120:1) or without; Superdex 200 10/300, 50 mM Tris pH 7.6, 150 mM NaCl, 2 mM CaCl2; both purified
T1 sequence (chain, Cys273 alkylated by Z-DON (Z-DON-Val-Pro-Leu-OMe)): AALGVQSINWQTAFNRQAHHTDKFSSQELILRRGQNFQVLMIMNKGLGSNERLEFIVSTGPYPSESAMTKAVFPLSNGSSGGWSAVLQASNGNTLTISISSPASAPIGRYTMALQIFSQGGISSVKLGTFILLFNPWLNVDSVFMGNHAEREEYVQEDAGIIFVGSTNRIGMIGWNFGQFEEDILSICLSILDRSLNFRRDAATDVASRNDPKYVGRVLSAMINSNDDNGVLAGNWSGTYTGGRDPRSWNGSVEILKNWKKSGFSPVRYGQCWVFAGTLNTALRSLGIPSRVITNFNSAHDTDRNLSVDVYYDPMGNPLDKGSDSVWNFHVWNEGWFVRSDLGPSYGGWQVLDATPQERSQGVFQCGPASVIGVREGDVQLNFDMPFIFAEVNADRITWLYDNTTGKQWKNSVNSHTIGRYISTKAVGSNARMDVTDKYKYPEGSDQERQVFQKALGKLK

[2] = target: T1, Z-DON-associated TG3 without C1C2 (enzyme-substrate intermediate conformer) (human); test: SEC; dispase-cleaved TG3 incubated overnight at room temperature with Z-DON (25:1) or without; Superdex 200 10/300, 20 mM Tris pH 8, 150 mM NaCl, 8 mM CaCl2, 1 mM EDTA, 1 mM DTT; fractions analysed by SDS-PAGE; both purified
[3] = target: T1, Z-DON-associated TG3 without C1C2 (enzyme-substrate intermediate conformer) (human); test: crystal structure; TG3 form mixed with Fab DH63-B02 at 1:1.1 molar ratio, complex purified by SEC; crystals in 0.1 M HEPES-MOPS pH 7.1, 16-22% ethylene glycol, 8-11% PEG 8000, 6-10 mM CaCl2, 3-10 mM MgCl2; three Ca2+ bound; both purified

Measured: binding

C1C2 fragment (two C-terminal beta-barrel domains) of cleaved TG3 (from UniProt Q08188) (domain or fragment)
no binding: all assays above
